Laboratory results as given in PubChem BioAssay AID504467 (National Center for Advancing Translational Sciences (NCATS), 2011).
Screen size: about 330,000 compounds; about 7,700 (2.3%) were called active. The shares of active, inactive and inconclusive entries below differ from those in the screen. Calls follow the shape of the dose curve; as a rule, active = well fitted inhibition curve with a large enough effect; inconclusive = small, poorly fitted or top-dose-only effect, or effect the other way; inactive = flat fitted curve, though single readings scatter. Potencies of inconclusive entries are doubtful fits and often do not repeat. Residues, ends and D or L forms follow the SMILES beside them.

Test: qHTS screen for small molecules that inhibit ELG1-dependent DNA repair in human embryonic kidney (HEK293T) cells expressing luciferase-tagged ELG1; also: nearly all actives have a fitted effect of over 55% in size
Settings: HEK293T ELG1-luciferase reporter, luminescence, 16 h, DNA damage induced by 5-fluorouridine; activity change, negative = inhibition: at 46.1 µM (top of the series)
Method in brief: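 Luminescence from the luciferase reporter, measured 30 min after ONE-Glo reagent at room temperature, was the read-out. Beforehand, 2,000 cells per well were exposed for 16 hr at 37 °C to 5-fluorouridine together with compound or vehicle.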
% is scaled to controls: 0 for no effect and ±100 for the full control effect; potency is read from the fitted curve at half-maximal effect.

| SMILES | Potency | activity change, negative = inhibition |
| --- | --- | --- |
| COc1ccc(NC(=O)N2CCc3ccccc32)cc1 | inconclusive: 0.731 µM [activator, full curve] |  |
| Cc1ccc(C)c(C(=O)COC(=O)Cn2c(C)csc2=O)c1 |  | inactive: 2.33% |
| COc1ccc(Nc2ncnc3sc(C)cc23)c(OC)c1 | inconclusive: 16.4 µM [activator, single point] |  |
| Cc1cccn2c(=O)c(/C=C(\C#N)S(=O)(=O)c3ccccc3)c(Oc3ccc(Cl)cc3)nc12 | inconclusive: 20.6 µM [inhibitor, partial curve] |  |
| Nc1c(Cl)c(Cl)nc(C(=O)N/N=C/c2cccnc2)c1Cl | inconclusive: 13 µM [inhibitor, partial curve] |  |
| Cc1ccc(CNC(=O)c2cccnc2Sc2cccc(Cl)c2)cc1 | inconclusive: 23.1 µM [inhibitor, partial curve, poor fit] |  |
| O=C(CCOc1ccccc1)N1CCN(S(=O)(=O)c2ccccc2F)CC1 |  | inactive: 17.1% |
| COc1ccc(CN(C)C(=O)c2cccc(S(=O)(=O)N3CCc4ccccc43)c2)c(OC)c1 | inconclusive: 18.3 µM [inhibitor, single point] |  |
| CSC1=C(C#N)C(c2ccccc2)C(C(C)=O)=C(C)N1 (centres undefined) |  | inactive: 6% |
| O=C1/C(=C/c2ccccc2)CSc2sccc21 | inconclusive: 20.6 µM [activator, single point] |  |
| COCCn1c(NCc2ccco2)nc2c1c(=O)[nH]c(=O)n2C | inconclusive: 29.1 µM [activator, partial curve, poor fit] |  |
| O=C(Nc1cccc(Cl)c1)c1cc(F)cc2c1OCOC2 |  | inactive: 22.6% |
| Cc1ccc(S(=O)(=O)N(C)C)cc1NC(=S)Nc1ccc2[nH]c(=O)[nH]c2c1 |  | inactive: -8.16% |
| O=C(NCC1CCCO1)C(=O)NCC(c1ccco1)N1CCN(c2ccccc2)CC1 (centres undefined) |  | inactive: -2.58% |
| O=C(OCc1ccccc1)C1CCCN1C(=O)c1cccs1 (centres undefined) |  | inactive: 13.1% |
| CCOc1ccc2c(c1)sc(N)[n+]2Cc1cc(C)cc2cccnc12 | inconclusive: 2.31 µM [inhibitor, full curve] |  |
| CC(=O)N1C(=O)CC(C)N(C(C)=O)c2ccc([N+](=O)[O-])cc21 (centres undefined) | inconclusive: 18.4 µM [activator, partial curve, poor fit] |  |
| COc1ccc(/C=C/C(=O)OCc2csc(-c3ccccc3)n2)cc1OC | inconclusive: 29.1 µM [inhibitor, partial curve, poor fit] |  |
| CC(=O)NC(CC(C)C)C(=O)NC(Cc1ccccc1)C(N)=O (stereo not drawn) (Ac-Leu-Phe-NH2; configuration not given here) | inconclusive: 13 µM [activator, partial curve, poor fit] |  |

Fetched by structure from the entries so far (two):

| SMILES | Potency | activity change, negative = inhibition |
| --- | --- | --- |
| COc1ccc(CN(C)C(=O)c2cccc(S(=O)(=O)N3CCc4ccccc43)c2)c(OC)c1 | inconclusive: 18.3 µM [inhibitor, single point] |  |
| O=C(OCc1ccccc1)C1CCCN1C(=O)c1cccs1 (centres undefined) |  | inactive: 13.1% |
